{"sequences": {"note": "By UniProt entry, the sequences of proteins in these tests, tags left out. Where a name states a change or a piece, a line headed by the entry shows the natural chain unless it says otherwise.", "UniProt O00167": "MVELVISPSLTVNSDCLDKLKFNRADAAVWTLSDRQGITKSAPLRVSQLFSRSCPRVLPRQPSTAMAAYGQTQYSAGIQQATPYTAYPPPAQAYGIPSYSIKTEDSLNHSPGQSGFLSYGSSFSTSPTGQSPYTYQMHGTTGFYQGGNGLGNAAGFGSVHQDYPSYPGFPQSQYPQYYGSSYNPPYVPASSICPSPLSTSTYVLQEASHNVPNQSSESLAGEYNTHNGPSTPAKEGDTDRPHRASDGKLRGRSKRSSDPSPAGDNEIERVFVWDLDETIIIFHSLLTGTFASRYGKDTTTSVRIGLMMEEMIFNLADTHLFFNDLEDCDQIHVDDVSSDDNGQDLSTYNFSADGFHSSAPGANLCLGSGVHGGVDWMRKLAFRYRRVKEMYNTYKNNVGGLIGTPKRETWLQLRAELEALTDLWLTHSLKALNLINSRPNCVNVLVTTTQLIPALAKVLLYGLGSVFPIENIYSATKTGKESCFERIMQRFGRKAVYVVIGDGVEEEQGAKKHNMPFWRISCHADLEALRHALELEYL"}, "source": "PubChem BioAssay AID488837", "about": "(National Center for Advancing Translational Sciences (NCATS), 2010)", "note": "Out of some 330,000 compounds screened, about 20 (0.006%) were called active. Inconclusive means that the source gave no clear call. Such entries were picked first, then a sample of the others. Calls follow the shape of the dose curve; as a rule, active = well fitted inhibition curve with a large enough effect; inconclusive = small, poorly fitted or top-dose-only effect, or effect the other way; inactive = flat fitted curve, though single readings scatter. A potency beside an inconclusive call is a rough fit, not a confirmed value."}
{"target": "Protein phosphatase EYA2 (Homo sapiens) (UniProt O00167)", "assay": "qHTS Assay for Inhibitors of the Phosphatase Activity of Eya2; also: potency is read from the fitted curve at half-maximal effect; as to activity, negative = inhibition: % is scaled to controls: 0 for no effect and ±100 for the full control effect", "conditions": "recombinant Eya2, OMFP fluorescence dephosphorylation (OMFP is methylfluorescein phosphate); activity, negative = inhibition: at 76.9 µM (top of the series) unless noted", "summary_of_the_method": "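Eya2 (0.2 uM) preincubated 10 min at ambient with compound, then OMFP substrate added at 50 uM; 10 min reaction in 50 mM HEPES pH 7.5, 50 mM NaCl, 5 uM MgCl2, 0.05% BSA, 1 mM DTT. Fluorescence read at Ex 485/Em 525 nm.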"}
{"compound": "C/C(=N\\NC(=O)C(C)Oc1ccc([N+](=O)[O-])cc1)c1ccccn1", "note": "(configuration not stated)", "activity, negative = inhibition": "inactive: -19.8%"}
{"compound": "COc1ccc(S(=O)(=O)N2CCOCC2)cc1NC(=O)c1cc2ccccc2o1", "Potency": "inconclusive: 35.5 µM [inhibitor, partial curve]"}
{"compound": "CC(C)(C)NC(=O)CN(C(=O)C1(C)CC(=O)N=C2C=CC=CN21)C1CCCC1", "note": "(configuration not stated)", "activity, negative = inhibition": "inactive: 15.8%"}
{"compound": "O=c1[nH]c(SCc2ccc(Cl)cc2)nc2[nH]ncc12", "activity, negative = inhibition": "inactive: -5.88%"}
{"compound": "CC(NC(=O)OCc1ccccc1)C(=O)Oc1cc2oc(=O)cc(-c3ccccc3)c2cc1Cl", "note": "(configuration not stated)", "activity, negative = inhibition": "inactive: -3.72%"}
{"compound": "CCOC(CNC(=O)C1CCN(S(=O)(=O)c2ccc3nc4c(c(C(=O)O)c3c2)CC(C)CC4)CC1)OCC", "note": "(configuration not stated)", "Potency": "inconclusive: 22.4 µM [inhibitor, single point]"}
{"compound": "CCC1=NN(C(=O)c2ccc(Cl)cc2)C(O)(c2ccccc2)C1", "note": "(configuration not stated)", "Potency": "inconclusive: 89.1 µM [inhibitor, single point]"}
{"compound": "Cc1ccc(S(=O)(=O)N(C)C[C@@H]2Oc3ccc(NC(=O)CCC(F)(F)F)cc3CC(=O)N([C@@H](C)CO)C[C@@H]2C)cc1", "Potency": "inconclusive: 56.2 µM [inhibitor, single point]"}
{"compound": "COc1ccc(OC)c(NC(=O)CSCc2cnn(-c3ccccc3)c2-n2cccc2)c1", "Potency": "inconclusive: 224 µM [inhibitor, single point]"}
{"compound": "Cn1c2ccccc2c(=O)n2c(=O)c3ccccc3cc12", "Potency": "inconclusive: 79.4 µM [inhibitor, single point]"}
{"compound": "O=C(/C=C/c1ccccc1Cl)c1ccccc(=O)c1O", "activity, negative = inhibition": "inactive: 5.41%"}
{"compound": "Cc1oc2cc(O)ccc2c(=O)c1Oc1ccc(F)cc1", "Potency": "inconclusive: 22.4 µM [inhibitor, single point]"}
{"compound": "NNC(=O)CSCc1nc(-c2ccc(Cl)cc2)cs1", "Potency": "inconclusive: 89.1 µM [inhibitor, single point]"}
{"compound": "Cc1cc(NC(=O)C2C3C(=O)N(c4cccnc4)C(C(=O)NC(C)(C)C)C34C=CC2(C)O4)no1", "note": "(configuration not stated)", "Potency": "inconclusive: 22.4 µM [inhibitor, single point]"}
{"compound": "COc1ccc(/C=N/NC(=O)c2ccncc2)c(C(=O)O)c1OC", "Potency": "inconclusive: 282 µM [inhibitor, partial curve]"}
{"compound": "COc1cc(NC(=O)CSCc2ccc(Cl)cc2Cl)c(C(=O)O)cc1OC", "Potency": "inconclusive: 158 µM [inhibitor, single point]"}
{"compound": "COC(=O)c1sccc1NC(=O)Nc1ccccc1OC", "activity, negative = inhibition": "inactive: 0.584%"}
{"compound": "CS(=O)(=O)N(CCc1ccccc1)CC(=O)NCc1ccccc1Cl", "Potency": "inconclusive: 89.1 µM [inhibitor, single point]"}
{"compound": "CCC(C)N1CC23C=CC(O2)C(C(=O)OCc2ccccc2)C3C1=O", "note": "(configuration not stated)", "Potency": "inconclusive: 89.1 µM [inhibitor, single point]"}
{"compound": "CON1C(=O)C(=O)N(OC)C(C)(C)C1C", "note": "(configuration not stated)", "Potency": "inconclusive: 25.1 µM [inhibitor, single point]"}
{"compound": "Cc1cc(C(=O)OCC(=O)NCc2cccs2)ccc1[N+](=O)[O-]", "Potency": "inconclusive: 56.2 µM [inhibitor, partial curve]"}
{"compound": "Cc1cc(NC(=O)CCOc2ccc(F)cc2)no1", "activity, negative = inhibition": "inactive: -13.2%"}
{"compound": "S=c1[nH]ccn1-c1ccccc1Cl", "Potency": "inconclusive: 89.1 µM [inhibitor, single point]"}
{"compound": "Nc1[nH]nc2nc(-c3ccccc3)[nH]c(=O)c12", "Potency": "inconclusive: 89.1 µM [inhibitor, single point]"}
{"compound": "Cc1ccc(NC(=O)c2nnn(CC(=O)Nc3ccc4c(c3)OCO4)c2N)cc1C", "Potency": "inconclusive: 31.6 µM [inhibitor, single point]"}
{"compound": "Cc1ccc(S(=O)(=O)Nc2ccccc2F)cc1C(=O)N1CCN(c2ccccc2O)CC1", "Potency": "inconclusive: 100 µM [inhibitor, partial curve]"}
{"compound": "O=C(N/N=C/c1ccccn1)c1ccc2nc[nH]c2c1", "Potency": "inconclusive: 89.1 µM [inhibitor, single point]"}
{"compound": "COc1ccc2c(c1)c1c(n2C)[C@@H]2CC=C(CO)[C@@H](C1)N2C", "Potency": "inconclusive: 70.8 µM [inhibitor, single point]"}
{"compound": "Cc1cccc2c1cnn2C(=O)CCC(=O)NCC(C)c1ccccc1", "note": "(configuration not stated)", "Potency": "inconclusive: 20 µM [inhibitor, single point]"}
{"compound": "c1ccc2nc3[nH]cnc3nc2c1", "activity, negative = inhibition": "inactive: -12.7%"}
{"compound": "O=C([C@@H]1Cc2ccccc2CN1)N1CCN(Cc2ccccc2)CC1", "Potency": "inconclusive: 112 µM [inhibitor, single point]"}
{"compound": "O=C(COC(=O)c1cc(S(=O)(=O)N2CCCCC2)ccc1Cl)NCc1ccco1", "Potency": "inconclusive: 141 µM [inhibitor, partial curve]"}
{"compound": "CCCN(CCC)CCNC(=O)c1cn(C)c(=O)c2c1c1ccccc1n2C", "Potency": "inconclusive: 20 µM [inhibitor, single point]"}
{"compound": "CC(O)[C@H]1CC[C@H]2[C@@H]3CC[C@H]4C[C@H](O)CC[C@]4(C)[C@H]3[C@H](O)C[C@]12C", "note": "(some centres not stated)", "activity, negative = inhibition": "inactive: 6.9%"}
{"compound": "CCOc1ccccc1N(CC(=O)Nc1cc(OC)ccc1OC)S(C)(=O)=O", "Potency": "inconclusive: 20 µM [inhibitor, partial curve]"}
{"compound": "COCCN(CC1CCCN(C2Cc3ccccc3C2)C1)C(=O)CCC(N)=O", "note": "(configuration not stated)", "Potency": "inconclusive: 22.4 µM [inhibitor, single point]"}
{"compound": "Cc1cc2ccccc2n1CCNC(=O)C1CC1", "Potency": "inconclusive: 126 µM [inhibitor, single point]"}
{"compound": "COc1ccc(C2=NC(C)(C)Cc3cc(OC)c(OC)cc32)cc1", "activity, negative = inhibition": "inactive: 5.48%"}
{"compound": "Cc1ccc2nc(-c3ccc(O)c(O)c3)cn2c1", "activity, negative = inhibition": "inactive: -6.98%"}
{"compound": "CCN(CC)S(=O)(=O)c1ccc(Cl)c(C(=O)NC2CCN(Cc3ccccc3)CC2)c1", "Potency": "inconclusive: 89.1 µM [inhibitor, single point]"}
{"compound": "COc1cccc(NC(=O)CN(C)C(=O)/C=C/c2ccc3ccccc3n2)c1", "activity, negative = inhibition": "inactive: 8.81%"}
{"compound": "Cc1cccc(-n2nnnc2SCc2csc(-c3ccccc3)n2)c1", "activity, negative = inhibition": "inactive: -2.85%"}
{"compound": "O=c1ccc(N=Nc2ccccc2)ccc1O", "Potency": "inconclusive: 200 µM [inhibitor, partial curve]"}
{"compound": "CC(=O)Nc1ccc(C(C#N)c2ccccc2)cc1", "note": "(configuration not stated)", "activity, negative = inhibition": "inactive: 5.92%"}
{"compound": "COc1ccc(-c2cc(N)n(S(=O)(=O)c3c(F)c(F)c(F)c(F)c3F)n2)cc1OC", "activity, negative = inhibition": "inactive: 8.24%"}
{"compound": "O=C1c2ccccc2NC(c2ccc(-c3cccc(F)c3)o2)N1O", "note": "(configuration not stated)", "activity, negative = inhibition": "inactive: 9.58%"}
{"compound": "Cc1ccc(Nc2c([N+](=O)[O-])ccc3nonc23)cc1C", "activity, negative = inhibition": "inconclusive: 31.6% [activator]"}
{"compound": "CC1=C(C(=O)OC(C)C)C(c2ccc(C)o2)C(C(=O)OC(C)C)=C(C)N1", "Potency": "inconclusive: 112 µM [inhibitor, single point]"}
{"compound": "COc1ccc(/C=C2\\SC(=S)N(CCC(=O)NCCCN3CCOCC3)C2=O)cc1", "Potency": "inconclusive: 22.4 µM [inhibitor, single point]"}
{"compound": "Cc1ccc(C(=O)O/N=C(/c2nonc2N)N(C)C)cc1", "Potency": "inconclusive: 100 µM [inhibitor, single point]"}
{"compound": "COc1ccc(CN2CCNC(=O)C2CC(=O)N(C)CCC2CCOCC2)c(OC)c1", "note": "(configuration not stated)", "Potency": "inconclusive: 28.2 µM [inhibitor, single point]"}
{"compound": "CC(=C/c1ccco1)/C=N/NC(=O)c1ccncc1", "Potency": "inconclusive: 17.8 µM [inhibitor, single point]"}
{"compound": "COc1cc(C(=O)NCCCN2CCCC2=O)ccc1OCc1ccc(Cl)cc1Cl", "activity, negative = inhibition": "inactive: -20.9%"}
{"compound": "CC(C)NC(=S)N/N=C1\\CCCCC1C1CCCCC1", "note": "(configuration not stated)", "activity, negative = inhibition": "inactive: -10.6%"}
{"compound": "COc1cccc(/C(O)=C2/C(=O)C(=O)N(c3ccccn3)C2c2ccc(OC)c(OC)c2)c1", "note": "(configuration not stated)", "Potency": "inconclusive: 28.2 µM [inhibitor, single point]"}
{"compound": "COc1ccc(-c2cc3nc[nH]c(=O)c3s2)cc1", "Potency": "inconclusive: 12.6 µM [inhibitor, single point]"}
{"compound": "CCOC(=O)c1cc(Br)c(=O)n2ccccc12", "Potency": "inconclusive: 22.4 µM [inhibitor, single point]"}
{"compound": "CC1(C)CC2CC(C)(CN2C(=O)COC(=O)CNC(=O)c2ccc(Cl)c(Cl)c2)C1", "note": "(configuration not stated)", "activity, negative = inhibition": "inactive: -11.7%"}
{"compound": "CN(C)C(CN=C1NS(=O)(=O)c2ccccc21)c1ccco1", "note": "(configuration not stated)", "Potency": "inconclusive: 28.2 µM [inhibitor, partial curve, poor fit]"}
{"compound": "Cc1ccc(SCCNC(=O)c2ccccc2F)cc1", "Potency": "inconclusive: 17.8 µM [inhibitor, single point]"}
{"compound": "O=C(Oc1coc(CSc2ncccn2)cc1=O)c1ccc(Br)o1", "activity, negative = inhibition": "inactive: -5.61%"}
{"compound": "CC(=O)Nc1ccc(Oc2cc(C#N)c(C#N)cc2N2CCOCC2)cc1", "activity, negative = inhibition": "inactive: 2.76%"}
{"compound": "N#Cc1nc(COc2ccc(-c3ccccc3)cc2)oc1NCCCN1CCOCC1", "activity, negative = inhibition": "inactive: -8.64%"}
{"compound": "Cc1cc2cc(CCNS(C)(=O)=O)c(=O)[nH]c2cc1C", "Potency": "inconclusive: 20 µM [inhibitor, partial curve, poor fit]"}
{"compound": "N#Cc1nc(Cc2ccccc2)oc1N1CCC(C(N)=O)CC1", "activity, negative = inhibition": "inactive: 2.21%"}
{"compound": "Cc1ccccc1CN1N=C(/C=C/c2ccccc2)CCC1=O", "Potency": "inconclusive: 100 µM [inhibitor, single point]"}
{"compound": "CC(=O)N(OCc1ccc(OC(C)C)c(Cl)c1)C(C)=O", "Potency": "inconclusive: 100 µM [inhibitor, single point]"}
{"compound": "[O-]/[N+](=C\\c1ccc(F)cc1)c1ccccc1", "Potency": "inconclusive: 11.2 µM [inhibitor, single point]"}
{"compound": "O=[N+]([O-])c1ccc2c(c1N1CCCCC1)=NC1(CCCCC1)[N+]=2[O-]", "Potency": "inconclusive: 22.4 µM [inhibitor, single point]"}
{"compound": "COCCn1c(-c2ccc(Cl)cc2Cl)nc2c(c(=O)c3ccccc3n2C)c1=O", "activity, negative = inhibition": "inactive: 1.32%"}
{"compound": "O=C(CSc1nc(-c2cccs2)cc(C(F)(F)F)n1)NCc1ccccc1", "activity, negative = inhibition": "inactive: -21.4%"}
{"compound": "CN(c1ccccc1)S(=O)(=O)c1ccc(C(=O)NCc2ccc(F)cc2)cc1", "Potency": "inconclusive: 25.1 µM [inhibitor, partial curve]"}
